From PubChem BioAssay AID1487 (National Center for Advancing Translational Sciences (NCATS), 2009)
Where “and” joins values, the source holds several entries; their conditions need not be identical. Equal entries are not always repeated. Some of the results follow. These are further read-outs of the screen, such as a control signal, another cell line or another target. No call is given for them. Compounds called inactive in the main read-out are mostly missing here. Potencies come from curve fits of mixed quality, noted in brackets.

Experiment: qHTS Assay for Modulators of Lamin A Splicing
Conditions: HeLa LMNA splicing GFP/RFP minigene ratio, 48 h
Summary of the method: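 S3 HeLa cells stably expressing lamin A-EGFP splicing minigene plus DsRed2, 600 cells/well, 48 h compound exposure at 37C. Laser-scanning cytometry; analysed as GFP (500-530 nm)/RFP (575-640 nm) total intensity ratio; 0.5% DMSO vehicle.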

[1] = measured here: RFP viability control channel
[2] = measured here: GFP splicing reporter channel

| Compound | AC50 [1] | AC50 [2] |
| --- | --- | --- |
| C/C(CC(=O)Nc1ccc(Cl)c(C(F)(F)F)c1)=N\NC(=O)c1ccccc1O | 11.2 µM [rising, partial curve] | – |
| CCS(=O)(=O)NCC(c1ccco1)N1CCN(c2ccc(OC)cc2)CC1 (stereo unspecified) | 0.794 µM [falling, full curve, poor fit] | 0.355 µM [falling, full curve, poor fit] |
| O=C(CSc1nc(O)cc(=O)n1-c1ccccc1)Nc1ccc2c3c(cccc13)CC2 | 3.98 µM [falling, full curve, poor fit] | 0.0355 µM [falling, full curve, poor fit] |
| CN(C)CCn1c(=N)n(CC(O)c2ccc(Cl)c(Cl)c2)c2ccccc21 (stereo unspecified) | – | 8.91 µM [falling, full curve, poor fit] |
| CC(C)Cc1cc(C(=O)Nc2cc(Br)ccc2O)no1 | 12.6 µM [rising, partial curve, poor fit] | – |
| CCSc1nnc(NC(=O)C2CCN(S(=O)(=O)c3ccccc3C(F)(F)F)CC2)s1 | 25.1 µM [rising, partial curve] | – |
| CCOc1ccc2c(c1)sc(N)[n+]2Cc1cc(C)cc2cccnc12 | 2 µM [rising, full curve] | – |
| COc1cc(OC)cc(C(=O)N[C@H](C(=O)Nc2nnc(C3CC3)s2)C(C)C)c1 | 15.8 µM [rising, partial curve, poor fit] | – |
| Cc1ccc(S(=O)(=O)N(C)c2cc(S(N)(=O)=O)c(C)cc2C)cc1 | 35.5 µM [rising, single point] | – |
| COc1ccc(NC(=O)CCn2nnc(-c3ccc(C)cc3)n2)cc1OC | 22.4 µM [rising, single point] | – |
| O=C(Nc1cccc(N=Cc2cc(Br)cc(Br)c2O)c1)c1ccco1 | 14.1 µM [rising, single point] | – |
| CS(=O)(=O)c1nc(-c2cccs2)cc(C(F)(F)F)n1 | 15.8 µM [falling, partial curve, poor fit] | – |
| O=C(c1ccc2ncsc2c1)N1CCN(c2ccc(O)cc2)CC1 | – | 11.2 µM [falling, partial curve] |
| CC1CN(C(=O)N2c3ccccc3Sc3ccccc32)C(C)CC1=O (stereo unspecified) | 22.4 µM [rising, single point] | – |
| Cn1c(N/N=C/c2c[nH]c3ccccc23)nc2ccccc21 | – | 20 µM [falling, single point] |
| CC(C)Cn1c(N)c(C(=O)COC(=O)C2CCCCC2)c(=O)n(C)c1=O | 15.8 µM [rising, single point] | 14.1 µM [rising, single point] |
| CC(C)CNS(=O)(=O)c1ccc(C(=O)Nc2ccc3c(c2)OCCO3)cc1 | 12.6 µM [rising, single point] | 10 µM [rising, partial curve] |
| CCCN(CCC)S(=O)(=O)c1ccc2c(c1)CCCN2C(C)=O | 31.6 µM [rising, single point] | 17.8 µM [rising, partial curve, poor fit] |
| CSC1=C(C#N)C(c2ccccc2)C(C(C)=O)=C(C)N1 (stereo unspecified) | – | 10 µM [rising, partial curve, poor fit] |

| Compound | AC50 [1] | AC50 [2] |
| --- | --- | --- |
| Nc1c(Cl)c(Cl)nc(C(=O)N/N=C/c2cccnc2)c1Cl | – | 6.31 µM [rising, single point] |
| CCCCn1nc(NC(=O)c2cccs2)c2cc3ccccc3nc21 | 35.5 µM [rising, single point] | – |
| C[C@H]1NC(=O)NC1=O | – | 0.891 nM [falling, full curve, poor fit] and 14.1 µM [falling, partial curve, poor fit] |
| Cc1cccc(-n2ccnc2SCC(=O)Nc2nccs2)c1C | 17.8 µM [rising, single point] | 12.6 µM [rising, single point] |
| CC1(C)CCCC2=C1CC1C(=O)N(c3ccccc3)C(=O)C1C2 (stereo unspecified) | – | 14.1 µM [rising, single point] |
| N#Cc1c(NC(=O)CSc2ncn(-c3ccccc3)n2)sc2c1CCCC2 | 31.6 µM [rising, single point] | – |
| Cc1cc(/C=N/n2cnnc2)c(C)n1-c1ccc(OCc2ccc(Cl)cc2Cl)cc1 | – | 3.55 µM [rising, full curve, poor fit] |
| CC(=O)c1cc2c(cc1NC(=O)c1cc(C)nn1-c1ccccc1)OCO2 | 3.16 µM [rising, partial curve, poor fit] | – |
| COCc1cc(Sc2ccc(Cl)cc2)nc(-c2ccccc2)n1 | 22.4 µM [rising, single point] | 15.8 µM [rising, single point] |
| Cn1c(CCN2CCCCC2)nc2cc(NS(=O)(=O)c3ccc(Cl)cc3)ccc21 | – | 35.5 µM [falling, single point] |
| O=C(COc1ccc(-n2cnnn2)cc1)NCCc1ccc(F)cc1 | 0.447 µM [rising, partial curve, poor fit] | – |
| NC(=O)OCC(COC(N)=O)c1ccccc1 | – | 0.00631 µM [falling, full curve, poor fit] |
| COc1cc(/C=C2/SC(=Nc3ccc(O)cc3)NC2=O)ccc1O | 11.2 µM [falling, partial curve, poor fit] | – |
| Cn1nccc1C(=O)NCc1ccc2c(c1)CCN2C(=O)c1ccccc1 | – | 1 µM [falling, full curve, poor fit] |
| CN(Cc1ccccc1)Cc1nc2c(c(=O)n(C)c(=O)n2C)n1Cc1ccc(F)cc1 | – | 0.316 µM [rising, partial curve, poor fit] |
| CC1CCCN(CCCNC(=O)CN2C(=O)CSc3ccc(S(=O)(=O)N4CCOCC4)cc32)C1 (stereo unspecified) | – | 0.0126 µM [falling, full curve, poor fit] |
| C[C@@H](C(=O)O)c1ccc(C(=O)c2ccccc2)s1 | – | 0.002 µM [falling, full curve, poor fit] |
| O=C(Nc1cc(C(F)(F)F)ccc1Cl)c1ccc(NC(=O)C(F)(F)F)cc1 | 0.00794 µM [rising, full curve, poor fit] | – |
| O=C(CSCc1ccc(Cl)cc1Cl)Nc1ccccc1C(=O)Nc1ccc(C(=O)O)cc1 | – | 2.51 µM [falling, full curve, poor fit] |

| Compound | AC50 [1] | AC50 [2] |
| --- | --- | --- |
| Cc1ccc(C)c(NC(=S)N/N=C2/CCCCc3ccccc32)c1 | 35.5 µM [rising, single point] | – |
| Cc1[nH]c2ccccc2c1C(c1ccncc1)N1CCN(c2ccc(F)cc2)CC1 (stereo unspecified) | 35.5 µM [rising, single point] | – |
| Cc1ccc(NC(=O)Nc2ccc(F)c(Cl)c2)cc1 | 35.5 µM [rising, partial curve] | – |
| CCN(Cc1ccccc1)C(c1ccc(Cl)cc1)c1nnnn1C(C)(C)C (stereo unspecified) | 3.55 µM [falling, single point] | – |
| Cc1ccc(C(c2sc3nc(-c4ccco4)nn3c2O)N2CCN(Cc3ccccc3)CC2)cc1 (stereo unspecified) | 0.282 µM [falling, partial curve] | – |
| O=C(OCC(=O)N1CCCCCC1)c1ccc([N+](=O)[O-])cc1Cl | – | 0.0178 µM [falling, full curve, poor fit] |
| COc1ccc(NC(=O)CCN2CCN(S(=O)(=O)c3ccc(OC)cc3)CC2)cc1 | – | 12.6 µM [rising, partial curve, poor fit] |
| Cc1ccc(-c2noc(CCC(=O)N3CCCC3)n2)cc1 | 35.5 µM [rising, single point] | 22.4 µM [rising, single point] |
| COc1ccc(N(Cc2cc3ccccc3[nH]c2=O)S(C)(=O)=O)cc1 | 11.2 µM [rising, single point] | – |
| CCOc1cc(C(=S)N2CCOCC2)ccc1OS(=O)(=O)c1ccccc1[N+](=O)[O-] | 12.6 µM [rising, partial curve] | 5.01 µM [rising, partial curve] |
| Cc1ccccc1NC(=O)CSc1nc(N)c2c3c(sc2n1)CSC(C)(C)C3 | 15.8 µM [rising, partial curve, poor fit] | – |
| COc1ccc(NC(=O)CCn2cccn2)cc1OC | – | 3.98 µM [rising, full curve, poor fit] |
| COc1ccc(/C=c2\s/c(=C/C(=O)c3ccc(C)cc3)[nH]c2=O)c(OC)c1 | 17.8 µM [rising, partial curve] | – |
| Cc1cccc(C(=O)Nc2ccccc2SCc2cc(=O)c3cccc(C)c3[nH]2)c1 | 8.91 µM [rising, partial curve] | 0.0501 µM [rising, full curve, poor fit] |
| CN1CCN(c2ccc(S(=O)(=O)Nc3ccccc3)cc2[N+](=O)[O-])CC1 | 14.1 µM [rising, partial curve] | 12.6 µM [rising, single point] |
| Cc1ccc(N(C)C(=O)C2CCCN(c3ncnc4c3nc3n4CCCCC3)C2)cc1C (stereo unspecified) | – | 39.8 µM [falling, partial curve, poor fit] |
| COc1ccc(N(C(=O)CS(=O)CC(=O)Nc2ccc(F)cc2)C(C(=O)NC2CCCCC2)c2cccs2)cc1 (stereo unspecified) | 15.8 µM [rising, single point] | 17.8 µM [rising, single point] |
| CCCCn1c(SCC(=O)Nc2cc(C(F)(F)F)ccc2Cl)nnc1C(CC)N(C)C (stereo unspecified) | 35.5 µM [rising, single point] | 22.4 µM [rising, single point] |
| COc1ccc(CC(=O)Nc2cccc(C)n2)cc1OC | 20 µM [rising, single point] | 1 µM [rising, full curve, poor fit] |

3 entries from above, comma-delimited.
Compound,AC50 [1],AC50 [2]
CCS(=O)(=O)NCC(c1ccco1)N1CCN(c2ccc(OC)cc2)CC1 (stereo unspecified),"0.794 µM [falling, full curve, poor fit]","0.355 µM [falling, full curve, poor fit]"
O=C(CSc1nc(O)cc(=O)n1-c1ccccc1)Nc1ccc2c3c(cccc13)CC2,"3.98 µM [falling, full curve, poor fit]","0.0355 µM [falling, full curve, poor fit]"
CN(C)CCn1c(=N)n(CC(O)c2ccc(Cl)c(Cl)c2)c2ccccc21 (stereo unspecified),–,"8.91 µM [falling, full curve, poor fit]"
